Assay results: patent US6319929A, “Suksdorfin analogs, compositions thereof, and methods for making and using thereof” (priority 1998, dated 2001)
At least one structure is not confirmed: it was looked up by name or label, or the drawing left a doubt.

System: HIV-1 replication in H9 cells
Assay: Combination study of suksdorfin with AZT, ddI and ddC: HIV-1 replication in acutely infected H9 cells
Type: cell-based, HIV-1 (IIIB)
Details: with 4 μg/ml suksdorfin
Procedure: HIV Growth Inhibition Assay: The T cell line, H9, and the promonocytic cell line, U937, were maintained separately in continuous culture with complete medium (RPMI 1640 and […] fetal calf serum (FCS) at 5% CO2 and 37° C. Cell lines were used in experiments only when in log phase of growth; whereas, uninfected peripheral blood mononuclear cells (PBMCs) were first stimulated with PHA (1 μg/ml) for 3 days. All cell targets were incubated with HIV-1 (IIIB isolate, TCID50 10 ^4 IU/mi, at a multiplicity of infection of 0.1-0.01 IU/cell) for 1 hour at 37° C. and 5% CO2. The cell lines and PBMCs were washed thoroughly to remove unabsorbed virions and resuspended at 4×10^5 cells/ml in complete medium or complete medium with 10% v/v interleukin […] IL-2, respectively. Aliquots ( ml) were placed in wells of 24-well culture plates containing an equal volume of test compound (diluted in the appropriate culture medium). After incubation for 4 days at 37° C., cell density of uninfected cultures was determined by counting cells in a Coulter counter to assess toxicity of the test compound. A p24 antigen ELISA assay was used to determine the level of virus released in the medium of the HIV-infected cultures. […] P24 in the culture medium was quantitated against a standard curve containing known amounts of p24. […]

With Nc1ccn([C@H]2CC[C@@H](CO)O2)c(=O)n1 [ddC, dideoxycytidine] the “reduction of amount of nucleoside needed in presence of suksdorfin” value was “Forty”.
